This is an account of results in doi:10.1101/326512.

By UniProt entry, the sequences of proteins in these tests, tags left out. Residues count along the entry.
UniProt Q9QYJ3: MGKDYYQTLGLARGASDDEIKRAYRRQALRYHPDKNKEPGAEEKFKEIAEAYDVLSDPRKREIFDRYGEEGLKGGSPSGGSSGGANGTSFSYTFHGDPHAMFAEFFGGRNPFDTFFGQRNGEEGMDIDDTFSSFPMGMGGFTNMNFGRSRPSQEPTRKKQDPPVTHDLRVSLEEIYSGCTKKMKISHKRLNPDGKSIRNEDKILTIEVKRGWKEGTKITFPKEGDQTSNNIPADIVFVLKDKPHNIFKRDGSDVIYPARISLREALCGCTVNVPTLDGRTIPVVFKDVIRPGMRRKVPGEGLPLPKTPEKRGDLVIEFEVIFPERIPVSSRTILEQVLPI
UniProt P04202, residues 30-390: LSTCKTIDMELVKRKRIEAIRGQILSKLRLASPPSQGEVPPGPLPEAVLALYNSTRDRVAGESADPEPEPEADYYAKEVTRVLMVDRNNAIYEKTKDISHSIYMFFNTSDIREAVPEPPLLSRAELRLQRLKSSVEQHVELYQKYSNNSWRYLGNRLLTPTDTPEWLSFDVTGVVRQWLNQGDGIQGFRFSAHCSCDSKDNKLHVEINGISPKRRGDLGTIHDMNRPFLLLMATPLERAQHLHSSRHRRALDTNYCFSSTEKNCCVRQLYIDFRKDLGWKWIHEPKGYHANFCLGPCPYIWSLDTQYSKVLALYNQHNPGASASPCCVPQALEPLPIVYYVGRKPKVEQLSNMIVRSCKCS
UniProt P20029, residues 20-655: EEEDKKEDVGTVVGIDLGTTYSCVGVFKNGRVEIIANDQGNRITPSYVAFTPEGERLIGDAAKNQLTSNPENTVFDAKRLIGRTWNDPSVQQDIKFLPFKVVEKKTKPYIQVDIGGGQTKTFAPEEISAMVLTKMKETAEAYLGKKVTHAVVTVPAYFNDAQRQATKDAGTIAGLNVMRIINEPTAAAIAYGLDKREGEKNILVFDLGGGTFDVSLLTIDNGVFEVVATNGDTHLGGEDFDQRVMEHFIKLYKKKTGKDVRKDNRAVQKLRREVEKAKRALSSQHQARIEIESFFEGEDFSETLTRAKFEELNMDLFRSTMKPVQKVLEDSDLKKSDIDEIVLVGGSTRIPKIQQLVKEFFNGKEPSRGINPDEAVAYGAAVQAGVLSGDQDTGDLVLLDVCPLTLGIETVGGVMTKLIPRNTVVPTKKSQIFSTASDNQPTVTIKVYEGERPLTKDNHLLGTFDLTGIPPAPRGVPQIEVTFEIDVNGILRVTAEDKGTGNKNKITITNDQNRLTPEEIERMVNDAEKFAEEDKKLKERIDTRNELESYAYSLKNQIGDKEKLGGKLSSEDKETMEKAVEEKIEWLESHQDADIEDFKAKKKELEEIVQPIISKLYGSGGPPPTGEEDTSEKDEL

Like-named read-outs stand apart in the source and are kept apart here. Results are given in words; binding and its absence hold for the method and conditions named. In cells and extracts the contact can be indirect. Here binding means that the protein was enriched with, or labelled near, the bait; the list need not be complete. For some assays here: No binding means not detected with the bait. Tags and fused reporters may be left off the sequences shown.

Assay [1] addresses T1, NRROS^LAP (C-terminus LAP-tagged NRROS), stable in RAW 264.7 cells (mouse) (UniProt Q8BMT4).
T1 sequence: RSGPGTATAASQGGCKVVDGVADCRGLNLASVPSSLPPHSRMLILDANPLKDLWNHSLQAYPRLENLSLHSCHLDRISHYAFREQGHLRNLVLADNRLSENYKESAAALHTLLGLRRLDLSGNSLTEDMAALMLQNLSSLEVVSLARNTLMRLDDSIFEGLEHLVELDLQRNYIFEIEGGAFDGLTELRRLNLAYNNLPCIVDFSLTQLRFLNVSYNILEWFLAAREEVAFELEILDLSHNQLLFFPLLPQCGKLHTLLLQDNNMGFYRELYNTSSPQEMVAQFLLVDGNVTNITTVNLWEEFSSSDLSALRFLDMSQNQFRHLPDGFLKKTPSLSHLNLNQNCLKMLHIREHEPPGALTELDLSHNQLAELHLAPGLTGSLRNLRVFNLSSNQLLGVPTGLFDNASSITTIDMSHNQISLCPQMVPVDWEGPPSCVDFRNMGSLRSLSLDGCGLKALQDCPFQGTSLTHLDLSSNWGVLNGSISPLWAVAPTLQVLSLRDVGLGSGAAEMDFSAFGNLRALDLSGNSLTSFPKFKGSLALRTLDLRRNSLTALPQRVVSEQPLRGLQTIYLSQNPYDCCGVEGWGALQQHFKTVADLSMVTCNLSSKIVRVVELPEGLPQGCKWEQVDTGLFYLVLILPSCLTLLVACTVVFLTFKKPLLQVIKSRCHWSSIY
Kind of assay: affinity purification with mass spectrometry.

Assay [2] addresses T2, NRROS^LRR-Flag (NRROS with Flag-tag internal to the protein), stable in RAW 264.7 cells (mouse) (UniProt Q8BMT4).
T2 sequence: T1 sequence
Briefly: affinity purification with mass spectrometry.

Assay [3] deals with T1, NRROS^LAP (C-terminus LAP-tagged NRROS), stable in RAW 264.7 cells (mouse). Briefly: condition: only NRROS^LAP expressed at endogenous level.
The target is the same in assay [4]. Kind of assay: affinity purification with mass spectrometry. The source holds these as a separate data set.
Assay [5] has the same target. Briefly: affinity purification with mass spectrometry. This is another data set of the same source.
Assay [6] deals with T2, NRROS^LRR-Flag (NRROS with Flag-tag internal to the protein), stable in RAW 264.7 cells (mouse). Briefly: affinity purification with mass spectrometry. This is another data set of the same source.

Consider “Dnajb1 (endogenous, RAW 264.7) (from UniProt Q9QYJ3 1-340)”, for which the binding entry in assay [1] and in assay [2] was “binds” throughout.
In the case of “Tgfβ1 (endogenous, RAW 264.7) (from UniProt P04202 30-390)”, the binding entry in assay [1] was “binds”; in assay [2] it was “binds”; in assay [3], “no binding”.
As for “Binding Immunoglobin protein (Bip)/Glucose-regulated protein 78(GRP78)/HSPA5 (endogenous, RAW 264.7) (from UniProt P20029 20-655)”, the binding result in assay [4], in assay [1] and in assay [2] was “binds” each time.

B1: Hypoxia upregulated 1 (HYOU1) (endogenous, RAW 264.7) (protein, UniProt Q9JKR6 33-999)
chain: LAVMSVDLGSESMKVAIVKPGVPMEIVLNKESRRKTPVTVTLKENERFLGDSAAGMAIKNPKATLRYFQHLLGKQADNPHVALYRSRFPEHELIVDPQRQTVRFQISPQLQFSPEEVLGMVLNYSRSLAEDFAEQPIKDAVITVPAFFNQAERRAVLQAARMAGLKVLQLINDNTATALSYGVFRRKDINSTAQNVMFYDMGSGSTVCTIVTYQTVKTKEAGMQPQLQIRGVGFDRTLGGLEMELRLREHLAKLFNEQRKGQKAKDVRENPRAMAKLLREANRLKTVLSANADHMAQIEGLMDDVDFKAKVTRVEFEELCADLFDRVPGPVQQALQSAEMSLDQIEQVILVGGATRVPKVQEVLLKAVGKEELGKNINADEAAAMGAVYQAAALSKAFKVKPFVVRDAVIYPILVEFTREVEEEPGLRSLKHNKRVLFSRMGPYPQRKVITFNRYSHDFNFHINYGDLGFLGPEDLRVFGSQNLTTVKLKGVGESFKKYPDYESKGIKAHFNLDESGVLSLDRVESVFETLVEDSPEEESTLTKLGNTISSLFGGGTSSDAKENGTDAVQEEEESPAEGSKDEPAEQGELKEEAEPPAEETSQPPPSEPKGDAAREGEKPDEKESGDKPEAQKPNEKGQAGPEGAAPAPEEDKKPKPARKQKMVEEIGVELAVLDLPDLPEDELARSVQKLEELTLRDLEKQEREKAANSLEAFIFETQDKLYQPEYQEVSTEEQREEISGKLSATSTWLEDEGFGATTVMLKDKLAELRKLCQGLFFRVEERRKWPERLSALDNLLNHSSIFLKGARLIPEMDQVFTEVEMTTLEKVINDTWAWKNATLAEQAKLPATEKPVLLSKDIEAKMMALDREVQYLLNKAKFTKPRPRPKDKNGTRAEPPLNASAGDQEEKVIPPAGQTEEAKPILEPDKEETGTEPADSEPLELGGPGAGPEQEEQSAGQKRPSKNDEL
Regarding B1, the binding entry in assay [5] and in assay [6] was “binds” each time.

B2: EDEM1 (endogenous, RAW 264.7) (protein, UniProt Q925U4 1-652)
chain: MQWRALVLGLVLLRLGLHAVLWLVFGLGPSMGFYQRFPLSFGFQRLRDPDGSGPVGPPGGPAWLHRPRRGTEGRLETPPEPGPTPGPGVCGPAHWGYALGGGGCGPDEYERRYSGAFPPQLRAQMRDLARGMFVFGYDNYMAHAFPQDELNPIYCRGRGPDRGDPSNLNINDVLGNYSLTLVDALDTLAIMGNSSEFQKAVKLVINTVSFDKDSTVQVFEATIRVLGSLLSAHRIITDSKQPFGDMTIEDYDNELLYMAHDLAVRLLPAFENTKTGIPYPRVNLKTGVPPDSNNETCTAGAGSLLVEFGILSRLLGDSTFEWVARRAVKALWNLRSNDTGLLGNVVNIQTGHWVGKQSGLGAGLDSFYEYLLKSYILFGEKEDLEMFNAAYQSIQSYLRRGREACNEGEGDPPLYVNVNMFSGQLMNTWIDSLQAFFPGLQVLIGDVEDAICLHAFYYAIWKRYGALPERYNWQLQAPDVLFYPLRPELVESTYLLYQATKNPFYLHVGMDILQSLEKYTKVKCGYATLHHVIDKSKEDRMESFFLSETCKYLYLLFDEENPVHKSGTRYMFTTEGHIISVDKRLRELPWKEFFSEDGERDQEEKFVHRPKSQELRVINSSSNCNRVPDERRYSLPLKSIYMRQIDQMVGLI
B2: the binding result in assay [5] was “binds”.

B3: calnexin (endogenous, RAW 264.7) (protein, UniProt P35564 21-591)
chain: HDGHDDDAIDIEDDLDDVIEEVEDSKSKSDASTPPSPKVTYKAPVPTGEVYFADSFDRGSLSGWILSKAKKDDTDDEIAKYDGKWEVDEMKETKLPGDKGLVLMSRAKHHAISAKLNKPFLFDTKPLIVQYEVNFQNGIECGGAYVKLLSKTAELSLDQFHDKTPYTIMFGPDKCGEDYKLHFIFRHKNPKTGVYEEKHAKRPDADLKTYFTDKKTHLYTLILNPDNSFEILVDQSVVNSGNLLNDMTPPVNPSREIEDPEDRKPEDWDERPKIADPDAVKPDDWDEDAPSKIPDEEATKPEGWLDDEPEYIPDPDAEKPEDWDEDMDGEWEAPQIANPKCESAPGCGVWQRPMIDNPNYKGKWKPPMIDNPNYQGIWKPRKIPNPDFFEDLEPFKMTPFSAIGLELWSMTSDIFFDNFIISGDRRVVDDWANDGWGLKKAADGAAEPGVVLQMLEAAEERPWLWVVYILTVALPVFLVILFCCSGKKQSNAMEYKKTDAPQPDVKDEEGKEEEKNKRDEEEEEEKLEEKQKSDAEEDGVTGSQDEEDSKPKAEEDEILNRSPRNRKPRRE
With B3, the binding entry in assay [4], in assay [5] and in assay [6] was “binds” in each case.
